This is one part of the list. Further columns of the screen follow, without active or inactive calls. The list favours compounds with an active or inconclusive main result. Words in brackets tell the shape of the fitted curve; partial curves, single points and poor fits give uncertain potencies.

This experiment can be described thus: IkB Signaling. To be noted: ABC-DLBCL IkBa-CBG/CBR dual luciferase ratio (green luciferase fused to IkBa over red control in OCI-Ly3 lymphoma cells), 4 h. Summed up: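 In this assay, an IκBα–CBG68 fusion accumulates when IKK-driven degradation is blocked; native CBR normalizes for cell number. OCI-Ly3 cells were treated 4 h with compound and doxycycline, then green and red light read after Chroma-Glo addition.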
The mark [1] stands for this setting: measured here: control luc red channel unless noted.

Turning to `COc1ccc(NC(=O)c2cc(C)nc3c2c(C)nn3-c2cccc(Cl)c2C)c(OC)c1`, the AC50 (as a rule, the concentration at which the activity in the assay is half-maximal) under setting [1] was 12.6 µM [falling, partial curve].
`Cc1ccc2oc(-c3ccc(NC(=O)c4cccc(F)c4)c(C)c3)nc2c1`: the AC50 under setting [1] was 5.01 µM [falling, partial curve].
Turning to `COc1cc(Cl)c(NC(=O)CN(C)S(=O)(=O)c2ccc3c(c2)CCCC(=O)N3)c(OC)c1`, the AC50 under setting [1] was 20 µM [falling, partial curve].
Regarding `COc1ccccc1CN1CC[C@@]2(CCCN(C(=O)c3cc(C(F)(F)F)cc(C(F)(F)F)c3)C2)C1`, the AC50 under setting [1] was 2.51 µM [rising, partial curve] [measured here: IkB-luc green channel].
The same measure, in the same setting: the value for `Cc1ccc(-c2nnc(Nc3cccc(O)c3)c3ccccc23)cc1S(=O)(=O)N1CCCCC1` was 6.31 µM [falling, partial curve].
Consider `CCCc1ccc(-c2ccc(C(=O)Oc3ccc(Br)cc3)cc2)nc1`, for which the AC50 under setting [1] is 2 µM [falling, partial curve].
As to `CN(C(=O)Cn1ncc2c1-c1ccccc1OC2)c1ccc(Br)cc1`, the AC50 under setting [1] is 25.1 µM [falling, partial curve].
The same measure, in the same setting: the same measure for `CCS(=O)(=O)c1cccc(C(=O)N2CCN(c3nc4c(C)ccc(Cl)c4s3)CC2)c1`: 25.1 µM [falling, single point]; for `CCCCCn1c(CNC(=O)c2ccc(F)cc2)nc2ccccc21`: 12.6 µM [falling, partial curve]; for `O=C(Cn1nnc2c(cnn2-c2ccccc2)c1=O)N1CCN(c2ccccc2F)CC1`: 31.6 µM [falling, single point].
The same measure, in the same setting: the value for `CN(C)C1(CNC(=O)COc2ccc(C(C)(C)C)cc2)CCCCC1` was 5.01 µM [falling, partial curve].
As for `COc1ccccc1OCC(=O)Nc1c(C(=O)c2ccc(C)cc2)oc2ccccc12`, the AC50 under setting [1] is 1.58 µM [rising, full curve].
For `CCCCCn1c(-c2cccc(C)c2)nc2ccccc21`, under setting [1], the AC50 is 31.6 µM [falling, single point].
Regarding `O=C(Nc1ccc2c(c1)OCO2)c1cc(-c2ccc(Cl)cc2)on1`, the AC50 under setting [1] is 3.16 µM [falling, full curve].
With `CSc1cccc(NC(=O)C2CCCN(S(=O)(=O)c3ccc(F)cc3)C2)c1` (centres undefined), under setting [1], the AC50 was 12.6 µM [falling, partial curve].
Turning to `COc1ccc(OC)c(CCNC(=O)C(C)n2c(C)c3cnn(-c4ccccc4)c(=O)c3c2C)c1` (centres undefined), under setting [1], the AC50 was 20 µM [falling, single point].
In the case of `COc1ccccc1CNS(=O)(=O)c1ccc(N2CCCCS2(=O)=O)cc1`, the AC50 under setting [1] is 39.8 µM [falling, single point].
Still for that read-out and setting: the value for `O=C(CCc1nc2ccccc2s1)N1CCN(S(=O)(=O)c2cccs2)CC1` was 31.6 µM [falling, single point]; that for `CCn1c(SCc2ccc(F)cc2Cl)nc(=O)c2c(C(=O)OC)cc(C3CC3)nc21` was 39.8 µM [falling, partial curve]; that for `c1ccc(-c2cc3c(-n4cccc4)ncnc3o2)cc1` was 25.1 µM [falling, partial curve].
In the case of `Cc1cc(NC(=O)COc2ccc(N(C)S(=O)(=O)c3ccccc3)cc2)no1`, the AC50 under setting [1] is 39.8 µM [falling, single point].
Consider `CC(C)C1N=C2c3ccccc3N=C(SCC(=O)NCc3ccccc3Cl)N2C1=O` (centres undefined), for which the AC50 under setting [1] is 12.6 µM [falling, partial curve].
`CCCn1c(=O)c2sccc2n2c(CCCC(=O)Nc3ccc(Oc4ccccc4)cc3)nnc12`: the AC50 under setting [1] is 5.01 µM [falling, full curve].
Same read-out and setting: the same measure for `CCN(CC)CCCNC(=O)CSc1nc2nc(C)c(Cc3c(F)cccc3Cl)c(C)n2n1`: 39.8 µM [falling, single point]; for `NC(=O)c1ccsc1NC(=O)COC(=O)c1ccccc1NCc1ccco1`: 12.6 µM [falling, partial curve].
In the case of `COc1ccc(N2CCn3c2nc2c3c(=O)n(CCCc3ccccc3)c(=O)n2C)c(OC)c1`, the AC50 under setting [1] is 3.16 µM [falling, full curve].
`Nc1ncnc2c([C@@H]3O[C@@H](CO)[C@H](O)[C@@H]3O)nsc12`: the AC50 under setting [1] is 0.398 µM [falling, full curve].
Take `O=c1[nH]c(C2CCCN(S(=O)(=O)c3ccccc3)C2)nc2c1nnn2Cc1ccccc1F` (centres undefined): the half-maximal activity concentration (AC50) under setting [1] is 20 µM [falling, single point].
Same read-out and setting: the value for `COc1ccc(Cn2ccc3nc(C)c(C(=O)N4CCN(c5ccccc5OC)CC4)cc3c2=O)cc1` was 25.1 µM [falling, partial curve]; that for `CC1=C(C(N)=O)C(c2cccc(C)c2)n2nc(-c3cccc(C)c3)nc2N1` (centres undefined) was 15.8 µM [falling, partial curve].
In the case of `CC(C)c1ccc(OCc2nc(-c3ccccn3)no2)c(Br)c1`, the AC50 under setting [1] was 12.6 µM [falling, partial curve].
In the case of `CC(C)(C)OC(=O)N1CCC(c2c(C(=O)N3CCN(c4ccccn4)CC3)cnn2-c2ccccc2Cl)CC1`, the AC50 under setting [1] is 15.8 µM [falling, partial curve].
As for `CCOCCCNC(=O)c1cn(CC)c2ccc(S(=O)(=O)N3CCc4ccccc4C3)cc2c1=O`, the AC50 under setting [1] is 31.6 µM [falling, single point].
For `CCOC(=O)c1[nH]c(C)c(CCC(=O)N2CCN(c3cccc(C)c3C)CC2)c1C`, the AC50 under setting [1] was 15.8 µM [falling, partial curve].
Turning to `Cc1ccc2nc(-c3ccncc3)c(Nc3ccc(C(C)C)cc3)n2c1`, under setting [1], the AC50 was 31.6 µM [falling, single point].
For the compound `Cc1ccc(CSc2nc(-c3ccc(C(C)(C)C)cc3)nc3cc(=O)[nH]n23)cc1`, the AC50 under setting [1] was 31.6 µM [falling, single point].
Same read-out and setting: the value for `N#CC1=C(N)N2C(=C(C#N)C13CCCCC3)SC1CCCCC12O` (centres undefined) was 20 µM [falling, partial curve, poor fit]; that for `COc1ccc(OC)c(CNC(=O)c2c(C)oc3ncn(C)c(=O)c23)c1` was 20 µM [falling, single point]; that for `O=C(c1ccc2c(c1)CCN2S(=O)(=O)c1ccc(Cl)cc1)N1CCN(c2ccccc2)CC1` was 12.6 µM [falling, single point].
With `CCOC(=O)c1c(C)oc2c1c(C(c1ccncc1)N1CCOCC1)c(O)c1ccccc12` (centres undefined), the AC50 under setting [1] was 31.6 µM [falling, single point].
With `CC(=O)Nc1ccc(S(=O)(=O)NCc2cccn2Cc2cccc(C)c2)cc1`, the AC50 under setting [1] was 10 µM [falling, partial curve].
As to `CCOc1ccc(CN2C(=O)c3ccccc3Sc3ccc(C(=O)OC)cc32)cc1`, the AC50 under setting [1] is 12.6 µM [falling, partial curve].
As to `O=S(=O)(Nn1cnnc1)c1ccccc1Cl`, under setting [1], the half-maximal activity concentration (AC50) is 1.58 µM [falling, partial curve].
`COc1ccc(CNC(=O)c2ccc3c(c2)N(Cc2ccccc2C)C(=O)c2ccccc2S3=O)cc1` (centres undefined): under setting [1], the AC50 is 6.31 µM [falling, partial curve].
For `Nc1ccccc1N`, the AC50 under setting [1] is 15.8 µM [falling, partial curve].
For the compound `COc1ccccc1-n1c(-c2cccnc2)n[nH]c1=S`, the AC50 under setting [1] is 5.01 µM [falling, full curve, poor fit].
Turning to `COc1ccc(Cl)cc1NC(=O)CCN1C(=O)c2ccccc2Sc2ncccc21`, the AC50 under setting [1] was 12.6 µM [falling, partial curve].
For the compound `CCC(=O)Nc1nc2ccccc2n1Cc1ccccc1`, the half-maximal activity concentration (AC50) under setting [1] was 31.6 µM [rising, partial curve] [measured here: IkB-luc green channel].
Consider `CC(C)C(=O)N1c2nc(C(C)C)nn2C2(CCCCC2)[C@@H]2CCCC[C@@H]21`, for which the concentration at half-maximal activity (AC50) under setting [1] was 31.6 µM [falling, single point].
Regarding `Cc1cc(C)c2c(=O)cc(CSc3nnc(-c4ccccc4)n3C)[nH]c2c1`, under setting [1], the AC50 was 39.8 µM [falling, single point].
As to `Cc1ccc(Nc2nc3ccccc3c3nnc(C)n23)cc1Cl`, the AC50 under setting [1] is 39.8 µM [falling, single point].
Turning to `Cc1ccc(CNc2ccc(O)cc2)cc1`, the half-maximal activity concentration (AC50) under setting [1] is 15.8 µM [falling, partial curve].
For `CCn1c(SCC(=O)c2cc(C)n(CC3CCCO3)c2C)nc2ccccc21` (centres undefined), the AC50 under setting [1] was 12.6 µM [falling, partial curve].
For `O=C(Nc1nc2c(s1)CCCC2)c1cccs1`, under setting [1], the AC50 was 3.98 µM [falling, full curve].
As to `COC(=O)c1ccccc1NC(=O)Nc1cccs1`, the AC50 under setting [1] was 20 µM [falling, partial curve].
On to `CCCC(CCC)C(=O)Nc1cccc(-c2nc3cccnc3s2)c1`, for which the AC50 under setting [1] is 10 µM [falling, partial curve].
`CC(=O)Oc1cc2c(C(=O)NCCCN3CCOCC3)c(C)oc2c2ccccc12`: the half-maximal activity concentration (AC50) under setting [1] is 12.6 µM [falling, partial curve].
Turning to `CC(=O)Nc1ccc(NS(=O)(=O)c2ccc3[nH]c4c(c3c2)CCCCC4)cc1`, the AC50 under setting [1] is 5.01 µM [falling, single point].
On the same count and under the same terms, the same measure for `COc1ccc(CCN2C(=O)N(c3ccc(F)cc3)C(=O)C2CC(=O)Nc2ccc(OC)cc2)cc1` (centres undefined): 25.1 µM [falling, single point]; for `NC1=CC(=O)c2cccc3cccc1c23`: 39.8 µM [rising, single point] [measured here: IkB-luc green channel].
Turning to `CCCCC1C(=O)N(c2ccccc2)N(c2ccccc2)C1=O`, the half-maximal activity concentration (AC50) was 25.1 µM [rising, partial curve] (measured here: IkB-luc green channel) and 15.8 µM [rising, partial curve] (measured here: control luc red channel).
In the case of `Cc1ccc(-n2nc3c(N4CCC(C(=O)NCCc5ccccc5C)CC4)nnc(C)c3c2C)cc1`, the AC50 under setting [1] is 1.58 µM [falling, partial curve].
In the case of `CN(C)c1cc2c(cc1NC(=O)c1ccc(F)cc1)n(C)c(=O)n2C`, the AC50 under setting [1] was 3.16 µM [rising, partial curve].

Values taken from PubChem BioAssay AID445 (National Center for Advancing Translational Sciences (NCATS), 2006).
